These are yes or no findings as the source states them, for the method shown. In cells and extracts the contact can be indirect. A result given as binding can be weak or reduced; the word gives no strength.
Target: GFP-DdRACK1mut (D. discoideum) (UniProt P46800)
Experiment: co-IP; GFP-, YFP- or RFP-tagged protein from AX2 lysates bound to GFP-trap or RFP-trap beads; lysis in 10 mM Tris/HCl pH 7.4, 150 mM NaCl, 0.5% NP40; 3 h; endogenous DdRACK1 detected by western blot with polyclonal antibodies

B1: recombinant DdRACK1 full length protein cleaved from the GST part (natural protein, D. discoideum, UniProt P46800 1-329, looked up)
chain: MEQQKAPQVTYLEVGSLVGHNGFVTSIAVSPENPDTIISSSRDKTVMVWQLTPTDATSPGKAHRSLKGHSHFVQDVVISHDGQFALSGSWDNTLRLWDITKGVSTRLFKGHTQDVMSVAFSSDNRQIISGSRDATIKVWNTLGECKFTLEGPEAHQDWVSCIRFSPNTPTIVSGSWDNKVKIWDIKSFKCNHTLTDHTGYVNTVTISPDGSLCASGGKDTFACLWELSSGKPLYKLEARNTINALAFSPNKYWLSAATDDKIIIWDLLTKQVLAEIVPEVKEQAFDSKKKKESKPKAPACLSLAWSADGSVLYAGYNDGLIRVYKSSSQ
notes: D. discoideum RACK1 (GpbB), 329 amino acids; Cloned in pGEX-4T-1; cleaved with thrombin; also called GpbB; D. discoideum RACK1; source: E. coli XL1 Blue, purified (GST-Sepharose, thrombin cleavage, DE-52 anion exchange)
  binding: binds

From article PMC4094278, “The Dictyostelium discoideum RACK1 orthologue has roles in growth and development” (Cell Communication and Signaling : CCS, 2014)
